In article doi:10.1101/2022.03.02.482703:
Like-named read-outs stand apart in the source and are kept apart here. Results are given in words; binding and its absence hold for the method and conditions named. In cells and extracts the contact can be indirect. Some results given as binding are weak or reduced against the parent protein; the word gives no strength.

Protein sequences, listed by entry. Tags and fused reporters are not part of them. Lines headed by an entry give the natural chain unless they say otherwise; changes in a name come on top.
UniProt P49023: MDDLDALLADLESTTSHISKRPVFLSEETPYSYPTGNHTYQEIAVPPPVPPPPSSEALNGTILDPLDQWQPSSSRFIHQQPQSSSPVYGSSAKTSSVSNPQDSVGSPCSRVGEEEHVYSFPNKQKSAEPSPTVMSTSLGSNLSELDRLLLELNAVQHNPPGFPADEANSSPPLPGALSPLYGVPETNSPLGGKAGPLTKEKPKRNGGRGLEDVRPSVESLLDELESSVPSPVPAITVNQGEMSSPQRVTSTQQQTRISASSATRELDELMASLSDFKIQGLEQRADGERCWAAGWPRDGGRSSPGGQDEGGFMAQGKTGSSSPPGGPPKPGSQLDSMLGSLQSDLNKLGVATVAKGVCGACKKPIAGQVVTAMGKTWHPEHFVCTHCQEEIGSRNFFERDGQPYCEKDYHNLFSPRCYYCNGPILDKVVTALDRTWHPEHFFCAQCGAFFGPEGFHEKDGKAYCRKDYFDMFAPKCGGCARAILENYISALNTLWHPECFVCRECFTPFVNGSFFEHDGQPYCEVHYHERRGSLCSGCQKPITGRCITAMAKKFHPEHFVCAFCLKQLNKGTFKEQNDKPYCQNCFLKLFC

Columns and labels:
Assay in all cases: co-IP
[1] = target: wildtype human Paxillin (WT-Paxillin-T2A-GFP) (human) (UniProt P49023)
[2] = target: non-phosphorylatable human Y118F-Paxillin (Y118F-Paxillin-T2A-GFP) (human) (UniProt P49023)
[3] = target: phosphomimetic human Y118E-Paxillin (Y118E-Paxillin-T2A-GFP) (human) (UniProt P49023)
[4] = target: wildtype human Paxillin (WT-Paxillin-T2A-GFP) (human) (UniProt P49023); remark: listed apart in the source
[5] = target: non-phosphorylatable human Y118F-Paxillin (Y118F-Paxillin-T2A-GFP) (human) (UniProt P49023); remark: listed apart in the source
[6] = target: wildtype human Paxillin (WT-Paxillin-T2A-GFP) (human) (UniProt P49023); remark: listed apart in the source
[7] = target: phosphomimetic human Y118E-Paxillin (Y118E-Paxillin-T2A-GFP) (human) (UniProt P49023); remark: listed apart in the source

Measured: binding

CRKII (from UniProt Q64010-1 1-304)
not listed: [6] | [7]
binds: all other assays above

B1: Vinculin (protein, UniProt Q64727 1-1066)
chain: MPVFHTRTIESILEPVAQQISHLVIMHEEGEVDGKAIPDLTAPVAAVQAAVSNLVRVGKETVQTTEDQILKRDMPPAFIKVENACTKLVQAAQMLQSDPYSVPARDYLIDGSRGILSGTSDLLLTFDEAEVRKIIRVCKGILEYLTVAEVVETMEDLVTYTKNLGPGMTKMAKMIDERQQELTHQEHRVMLVNSMNTVKELLPVLISAMKIFVTTKNSKNQGIEEALKNRNFTVEKMSAEINEIIRVLQLTSWDEDAWASKDTEAMKRALASIDSKLNQAKGWLRDPNASPGDAGEQAIRQILDEAGKVGELCAGKERREILGTCKMLGQMTDQVADLRARGQGASPVAMQKAQQVSQGLDVLTAKVENAARKLEAMTNSKQSIAKKIDAAQNWLADPNGGPEGEEQIRGALAEARKIAELCDDPKERDDILRSLGEIAALTSKLGDLRRQGKGDSPEARALAKQVATALQNLQTKTNRAVANSRPAKAAVHLEGKIEQAQRWIDNPTVDDRGVGQAAIRGLVAEGHRLANVMMGPYRQDLLAKCDRVDQLTAQLADLAARGEGESPQARALASQLQDSLKDLKAQMQEAMTQEVSDVFSDTTTPIKLLAVAATAPPDAPNREEVFDERAANFENHSGRLGATAEKAAAVGTANKSTVEGIQASVKTARELTPQVISAARILLRNPGNQAAYEHFETMKNQWIDNVEKMTGLVDEAIDTKSLLDASEEAIKKDLDKCKVAMANIQPQMLVAGATSIARRANRILLVAKREVENSEDPKFREAVKAASDELSKTISPMVMDAKAVAGNISDPGLQKSFLDSGYRILGAVAKVREAFQPQEPDFPPPPPDLEQLRLTDELAPPKPPLPEGEVPPPRPPPPEEKDEEFPEQKAGEVINQPMMMAARQLHDEARKWSSKGNDIIAAAKRMALLMAEMSRLVRGGSGTKRALIQCAKDIAKASDEVTRLAKEVAKQCTDKRIRTNLLQVCERIPTISTQLKILSTVKATMLGRTNISDEESEQATEMLVHNAQNLMQSVKETVREAEAASIKIRTDAGFTLRWVRKTPWYQ
binds: [6] | [5] | [7]
